Laboratory results reported in publication PMC10163288.
Some of the results follow.

B1: il10ra_site1_sap_16_mot_HHH_b1_08281_000000266_0001_42_57_H_._HHH_b2_08339_0001_0000500023_0000002_0_0001_af2pred_dldesign_0_af2pred (protein)
chain: SSSSSPLEKEIEELLREARAAKEAGKLDEARELIARAMLLAAKVNDKKWFDAVMSTYATLFSSSS
B2: il10ra_site1_sap_18_mot_HHH_b1_05860_000000142_0001_1_19_H_._HHH_b2_06678_0001_0000100008_0000002_0_0001 (protein)
chain: SSSSDYEERVEELLEQAEELAERGNPEEAAHALLEAVQLAYEARDAELLRLVWRVVKRLGSSSSS
B3: il10ra_site1_normal_mot_HHH_b1_05056_000000217_0001_1_20_H_._HHH_b2_00098_0001_0000100009_0000001_0 (protein)
chain: SSSSSEVEEEVEELLEEAKQIEDPREAAEVLLRATQIALEGQDPEALRLVWEVVKRLAERSSSSS
B4: il10ra_site1_normal_mot_HHH_b2_00441_000000147_0001_1_18_H_._HHH_b2_03122_0001_0000400042_0000001_0 (protein)
chain: SSSSDQEEQALRSAFESAERALELGDEEYFRLALRFLELLAKSLNDEEAKELVEELKERGSSSSS
B5: il10ra_site1_normal_mot_HHH_b1_06020_000000123_0001_1_18_H_._HHH_b1_06941_0001_0000400020_0000001_0_1_af2pred_0001 (protein)
chain: SSSSSDEEHEEVEELIEELKRIEDEEEFAKVFLEASRLAQRHNNEEAVELVLRAAAKWLRSSSSS
B6: il10ra_site1_sap_15_mot_HHH_b2_05813_000000266_0001_1_19_H_._ems_3hC_1310_0001_af2_0001_0000600040_0000002_0_0001 (protein)
chain: SSSSADEEFEFTREKYEEARELLQNGNPEEAEEVLEEAREYLKEAGNWAALFAVEVLLKQLSSSS
B7: il10ra_site1_sap_28_mot_HHH_b2_06795_000000133_0001_42_56_H_._HHH_b1_08376_0001_0000100010_0000001_0_0001_af2pred_0001 (protein)
chain: SSSSSSDVEHLVKAARELYERGNPEAAKAALRFAKHLAEALNDEELLEEIEKLLEEIRSSSSSSS
B8: il10ra_site1_sap_32_mot_HHH_b1_03094_000000294_0001_1_20_H_._HHH_b2_05552_0001_0000400045_0000001_0_0001 (protein)
chain: SSSSDEEEELEELLREIKELLEEGNPEEAFKLLLRALRLAYRTGDEEVLQELWELAKEVASSSSS
B9: il10ra_site1_normal_mot_HHH_b1_02492_000000051_0001_1_21_H_._HHH_b1_05494_0001_0000500037_0000001_0 (protein)
chain: SSSSSDRADRIYELLRRIIELIREGDEEEARELLEEVEELVEEANNDTLRFVLRFLKRELSSSSS
B10: il10ra_site1_sap_27_mot_HHH_b1_05870_000000031_0001_1_20_H_._HHH_b2_06019_af2_0001_0000100004_0000001_0_0001 (protein)
chain: SSSSSDIEELLREAEELAEEGDPEEAARLLLEALKLIYERQDKELLQELWEVVRRVAEISSSSSS
B11: il10ra_site1_sap_15_mot_HHH_b2_01447_af2_000000258_0001_1_20_H_._HHH_b2_01538_af2_0001_0000900031_0000001_1_0001_af2pred_0001 (protein)
chain: SSSSDARRDVRLALRLVELLVRQGDDEEAEKLVEWIEKLLRRNGDPEVEELLKEAEKLLNSSSSS
B12: il10ra_site1_sap_18_mot_HHH_b2_02497_000000141_0001_1_20_H_._HHH_b1_08018_0001_0001300072_0000001_0_0001 (protein)
chain: SSSSSEEEVERLLEEAQRAIEEGDPEEAAQLLFRAMRLAYESNNEELWEKVIRVAAEVWEASSSS
B13: il10ra_site1_sap_13_mot_HHH_b1_07641_af2_000000285_0001_1_21_H_._HHH_b1_00627_af2_0001_0000500024_0000001_0_0001_af2pred_dldesign_0_af2pred (protein)
chain: SSAEEARAALERARELAEEKKNEKLLAAVDYYLKDLDYAVSHNDEEAIALVLHAARALLEILEES
B14: il10ra_site1_normal_mot_HHH_b2_04680_000000215_0001_1_16_H_._HHH_b1_00201_af2_0001_0000300029_0000001_0 (protein)
chain: SSSSNEENREAYELLRKAFELLQQGNPEEARELLEEAEELARKGGNHALEFAIRLLLEQLSSSSS
B15: il10ra_site1_sap_13_mot_HHH_b1_00682_000000211_0001_1_20_H_._HHH_b1_00625_0001_0000200017_0000003_0_0001 (protein)
chain: SSSSDEYVELTIRFARWLIKAGDKEAAERMLKAAKEMAEKDNDDELLRRLEELEEEIEELSSSSS
B16: il10ra_site1_normal_mot_8756ee2cf497b5429c717dfc0c0bcfd6_0001_000000186_0001_1_13_H_._HHH_b2_03301_0001_0000400029_0000002_0 (protein)
chain: SSSSSESEEVAELLRRASELITEGNPEEAREVLEQARELIEELGNDVLRVQLEYLERELESSSSS
B17: il10ra_site1_sap_23_mot_9c3e5e2d2b9ffb70dc788f52fbfab6d5_0001_1_000000198_0001_1_14_H_._HHH_b1_00922_0001_0001300058_0000001_0_0001_af2pred_0001 (protein)
chain: SSSSNEELKELLKLIREAAELLFEGNPEEARKLIKEAQELAEELGDTTAKVILEFLEKQANSSSS
B18: il10ra_site1_sap_24_mot_HHH_b1_02665_000000293_0001_1_18_H_._HHH_b2_00244_0001_0000100001_0000001_0_0001_af2pred_0001 (protein)
chain: SSSSDSRELIRLLRRALELLNDGNPEEAEKLLERAQEIAEEANSLNLRVVIEFVLEQVEQHSSSS
B19: il10ra_site1_sap_15_mot_HHH_b1_03327_000000294_0001_1_19_H_._HHH_b1_05077_0001_0000200007_0000001_0_0001 (protein)
chain: SSSSDLYELSRKAAELSHEGNPEEAREVAEEAFEIAEEKGNRILLWTIEWLIERIRKLLNSSSSS
B20: il10ra_site1_normal_mot_6bb093d23f5042b6c551c363657da53b_0001_1_000000153_0001_51_65_H_._HHH_b2_06805_af2_0001_0000200011_0000001_0_af2pred_dldesign_0_af2pred (protein)
chain: SSSSSTEEKTAELKKKIEELLKAGNEEELREQLREAARFALETKDSELIKLVIEAAEKLESSSSS
B21: il10ra_site1_normal_mot_HHH_b1_00666_000000226_0001_43_56_H_._HHH_b2_00187_af2_0001_0000100008_0000001_0 (protein)
chain: SSSSSSDEEEEEVRELLEEAEKIEDQEEANRVLQEAVRLVMELGNEELLRLLWEAVLKLSSSSSS
B22: il10ra_site1_normal_mot_HHH_b1_04573_000000273_0001_43_57_H_._HHH_b2_00873_0001_0000400017_0000002_0_af2pred_0001 (protein)
chain: SSSSSSEFEEEVEELLEQAKRIPNPQERTRLLREAAELAAELGNPELLRLVLEVAQEILSSSSSS
B23: il10ra_site1_normal_mot_b26a303360aa2756ef5b79665ce52f45_0001_000000179_0001_1_11_H_._HHH_b2_05971_0001_0000300035_0000001_1_af2pred_0001 (protein)
chain: SSSSSSVERLFELSRRAAELAFKGDREEAREVLEEAKELAEELGDLNTLHNLEHLERNINSSSSS
B24: il10ra_site1_sap_21_mot_HHH_b2_06979_000000158_0001_42_57_H_._HHH_b1_00540_af2_0001_0000100003_0000001_0_0001 (protein)
chain: SSSTLTERIYKLSEKALELLKQGDTEEAEEVVEEAIELAEEAGSRVLAHVLEFLLEAIKRRSSSS

target: il10ra, Q13651; assay: yeast display titration

Apparent Kd, inactive:
B1 no binding seen
B2 no binding seen
B3 no binding seen
B4 no binding seen
B5 no binding seen
B6 no binding seen
B7 no binding seen
B8 no binding seen
B9 no binding seen
B10 no binding seen
B11 no binding seen
B12 no binding seen
B13 no binding seen
B14 no binding seen
B15 no binding seen
B16 no binding seen
B17 no binding seen
B18 no binding seen
B19 no binding seen
B20 no binding seen
B21 no binding seen
B22 no binding seen
B23 no binding seen
B24 no binding seen

Reprinted at random: 2 records from the list, in no set order.
Apparent Kd, inactive:
B3 no binding seen
B7 no binding seen
